{"source": "PubChem BioAssay AID2685", "about": "(National Center for Advancing Translational Sciences (NCATS), 2010)", "note": "About 2,100 (0.66%) of roughly 320,000 compounds were called active. The inconclusive results got no clear call from the source; some entries with a clear call stand among them for comparison. Calls come from the whole dose curve; as a rule, active = well fitted inhibition curve with a large enough effect in the signal ratio, with a control signal flat (not every such curve was filed as active); inconclusive = small, poorly fitted or top-dose-only effect, or effect the other way, or a change in a side signal; inactive = flat fitted curve, though single readings scatter; the % refers to the signal ratio. Potencies beside an inconclusive call are fits to weak or partial responses and may not hold up. % is set by controls: 0 for no effect and ±100 for the full control effect; potency is the fitted concentration of half-maximal effect."}
{"assay": "qHTS Assay for Lipid Storage Modulators in Drosophila S3 Cells", "settings": "BODIPY lipid droplet fluorescence, 18-24 h, cells fed with added oleic acid; lipid storage change, negative = inhibition: at 46.1 µM (top of the series) unless noted", "procedure,_shortened": "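Drosophila S3 cells loaded with oleic acid (400 uM, as added) and compounds at several concentrations; lipid droplets imaged by 488-nm laser-scanning cytometry, 500–530 nm intensity and object ratio to cell channel. Percent activity normalized to 20 uM Triacsin C.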"}
{"molecule": "CC(=O)N(C)C1(c2nnnn2CCOC(=O)Nc2cccc3ccccc23)CCCC1", "Potency": "inconclusive: 1.46 µM [activator, partial curve, poor fit]"}
{"molecule": "O=C1COc2ccc(C(=O)CCl)cc2N1", "Potency": "inconclusive: 32.6 µM [cytotoxic, single point]"}
{"molecule": "O=c1c2c(nc3cc(-c4ccccc4)[nH]n13)CCC2", "lipid storage change, negative = inhibition": "inconclusive: 16.6%"}
{"molecule": "CC(C)CNC(=O)c1cc(-c2ccc(Cl)c(Cl)c2)on1", "lipid storage change, negative = inhibition": "inconclusive: 9.74%"}
{"molecule": "COc1ccc(-c2oc3cccnc3c2/C=C/c2ccc(OC)c(OC)c2)cc1", "Potency": "inconclusive: 29.1 µM [falling, single point]"}
{"molecule": "O=C(NCCc1ccccn1)c1ccc2nc(Cc3ccccc3F)oc2c1", "Potency": "inconclusive: 29.1 µM [falling, partial curve, poor fit]"}
{"molecule": "Cc1ccc(C(=O)C2Oc3ccccc3C3CC(c4ccc(C)cc4)=NN23)cc1", "note": "(stereo not given)", "Potency": "inconclusive: 8.2 µM [activator, partial curve]"}
{"molecule": "Cc1ccc(CNC(=O)C2CCCCC2C(=O)O)cc1", "note": "(stereo not given)", "lipid storage change, negative = inhibition": "inconclusive: 42.6%"}
{"molecule": "CCCS(=O)(=O)c1c(S(=O)(=O)CCC)c2ccc(C(C)=O)cn2c1C(=O)OC", "lipid storage change, negative = inhibition": "inconclusive: -4.4%"}
{"molecule": "CN1CCN(c2ccc(NC(=O)COc3ccccc3)cc2Cl)CC1", "lipid storage change, negative = inhibition": "inconclusive: 56.3%"}
{"molecule": "CCCCc1cc(=O)oc2cc(OCC(=O)N3CCc4ccccc43)ccc12", "Potency": "inconclusive: 6.51 µM [activator, partial curve, poor fit]"}
{"molecule": "O=S(=O)(c1ccccc1)c1nnn2c1nc(NC1CCN(Cc3ccccc3)CC1)c1cc(Cl)ccc12", "Potency": "active: 18.4 µM"}
{"molecule": "O=C(Cn1cnc2ccccc2c1=O)Nc1ccc(N2CCOCC2)cc1", "lipid storage change, negative = inhibition": "inconclusive: 5.73%"}
{"molecule": "CCn1nc(NC(C)=O)c2cc3cccc(C)c3nc21", "lipid storage change, negative = inhibition": "inactive: 16%"}
{"molecule": "COc1ccccc1NS(=O)(=O)c1cc(NC(=O)C(C)C)ccc1N1CCCCC1", "lipid storage change, negative = inhibition": "inconclusive: 48.8%"}
{"molecule": "CCCOc1cc(C)c(S(=O)(=O)n2nnc3ccccc32)cc1C", "Potency": "inconclusive: 0.0058 µM [falling, full curve, poor fit]"}
{"molecule": "COc1ccc(OC)c(/C=N/Nc2nc(C)cc(=O)[nH]2)c1", "lipid storage change, negative = inhibition": "inconclusive: -23.3%"}
{"molecule": "CCN1C=C(Cc2cccs2)C2=C(C1)C(c1cccs1)C(C#N)=C(N)O2", "note": "(stereo not given)", "lipid storage change, negative = inhibition": "inconclusive: -0.157%"}
{"molecule": "C=CCSc1nccc(-c2nn(-c3ccc(C)cc3)ccc2=O)n1", "lipid storage change, negative = inhibition": "inconclusive: 5.02%"}
{"molecule": "NS(=O)(=O)c1ccc(N/N=C/c2ccccc2Br)cc1", "lipid storage change, negative = inhibition": "inconclusive: 40.5%"}
{"molecule": "CC(=O)c1ccc(OCCCC(=O)Nc2ccc3c(c2)OCCO3)cc1", "Potency": "inconclusive: 6.51 µM [falling, partial curve]"}
{"molecule": "OC(c1ccc(F)cc1)(C1CCCCC1)C(CN1CCOCC1)c1ccccc1", "note": "(stereo not given)", "Potency": "inconclusive: 29.1 µM [activator, single point]"}
{"molecule": "CC1(C)CC(NC(=S)Nc2ccc(S(N)(=O)=O)cc2)CC(C)(C)N1", "lipid storage change, negative = inhibition": "inconclusive: -1.88%"}
{"molecule": "Cc1ccc(S(=O)(=O)n2cnc3cc([N+](=O)[O-])ccc32)c(C)c1", "lipid storage change, negative = inhibition": "inconclusive: 12.2%"}
{"molecule": "COc1ccc(C)cc1NC(=O)n1ncc2cc(Cl)ccc21", "lipid storage change, negative = inhibition": "inconclusive: -5.32%"}
{"molecule": "O=C(NC1CCCC1)c1nc2c(nnn2Cc2cccc(Cl)c2)c(=O)[nH]1", "lipid storage change, negative = inhibition": "inconclusive: 16.1%"}
{"molecule": "CN1CC(=O)N=C1N", "lipid storage change, negative = inhibition": "inconclusive: -5.2%"}
{"molecule": "CC(CC(C)C(=O)N1CCOCCN(C(=O)C(C)CC(C)C(=O)O)CCOCC1)C(=O)O", "note": "(stereo not given)", "lipid storage change, negative = inhibition": "inconclusive: 1.5%"}
{"molecule": "CCN(CC)S(=O)(=O)c1ccc(N2CCCC2)c(NC(=O)Cc2ccc(OC)cc2)c1", "Potency": "inconclusive: 0.731 µM [rising, full curve, poor fit]"}
{"molecule": "Cc1cc(NC(=O)CN2CCC(n3nnc4cc(C(F)(F)F)ccc43)CC2)no1", "Potency": "inconclusive: 29.1 µM [activator, single point]"}
{"molecule": "CCc1ccc(-c2cc3c(=O)n(CC(=O)NCCCN4CCN(CC)CC4)nc(C)n3n2)cc1", "Potency": "inconclusive: 2.06 µM [activator, single point]"}
{"molecule": "CN(C)c1cccc2c(/C=N/O)ccc(N(C)C)c12", "Potency": "inconclusive: 29.1 µM [falling, single point]"}
{"molecule": "Clc1cc2c(c(CSc3nc4ccccc4n4cccc34)c1)OCOC2", "Potency": "inconclusive: 32.6 µM [falling, partial curve, poor fit]"}
{"molecule": "COc1ccccc1NC(=O)Cn1c(=O)n(-c2ccccc2)c(=O)c2oc3ccccc3c21", "lipid storage change, negative = inhibition": "inconclusive: -11.1%"}
{"molecule": "CNC(=O)n1ccc(C(=O)N2CCCCC2)n1", "lipid storage change, negative = inhibition": "inconclusive: -19.5%"}
{"molecule": "COc1ccc2oc(C(=O)N(C)Cc3ccc4c(c3)OCCO4)c(C)c2c1", "lipid storage change, negative = inhibition": "inconclusive: 18.7%"}
{"molecule": "Cc1ccc(NC(=O)C2COc3ccccc3O2)cc1S(=O)(=O)N1CCCCC1", "note": "(stereo not given)", "Potency": "inconclusive: 6.51 µM [falling, single point]"}
{"molecule": "COC(=O)[C@H](Cc1ccccc1)NC(=O)NCCc1ccccc1F", "lipid storage change, negative = inhibition": "inconclusive: 33.5%"}
{"molecule": "CCC1=NC(c2ccccc2Cl)N(O)C1(C)C", "note": "(stereo not given)", "Potency": "inconclusive: 29.1 µM [falling, single point]"}
{"molecule": "CCN(CC)S(=O)(=O)c1cccc(C(=O)OCc2cc(=O)n3nc(C)sc3n2)c1", "lipid storage change, negative = inhibition": "inconclusive: 1.66%"}
{"molecule": "CCn1cc(Br)c(C(=O)Nc2sc3c(c2C(N)=O)CCCC3)n1", "Potency": "inconclusive: 6.51 µM [falling, single point]"}
{"molecule": "CC1CCCN(C(=O)CN2C(=O)CSc3ccc(S(=O)(=O)N4CCOCC4)cc32)C1", "note": "(stereo not given)", "Potency": "inconclusive: 6.51 µM [falling, single point]"}
{"molecule": "O=C(OCc1ccc(F)cc1)c1cc(S(=O)(=O)N2CCCCC2)ccc1N1CCOCC1", "lipid storage change, negative = inhibition": "inconclusive"}
{"molecule": "COc1ccc(C2(C)NC(=O)N(CC(=O)Nc3ccc4c(c3)CCC4)C2=O)cc1OC", "note": "(stereo not given)", "lipid storage change, negative = inhibition": "inconclusive: 15.5%"}
{"molecule": "COc1ccc(-c2oc3ncn4nc(Cc5ccccc5)nc4c3c2-c2ccc(OC)cc2)cc1", "Potency": "inconclusive: 1.46 µM [activator, partial curve]"}
{"molecule": "CCN1CCN(c2ccc(S(=O)(=O)N3CCCCC3)cc2NC(=O)/C=C/c2ccc(OC)c(OC)c2)CC1", "Potency": "inconclusive: 13 µM [activator, partial curve]"}
{"molecule": "COc1cc(/C=C(\\C#N)c2nc3ccccc3[nH]2)cc(Br)c1OCc1ccccc1", "lipid storage change, negative = inhibition": "inconclusive: -16.8%"}
{"molecule": "Cc1ccc(CNC(=O)CN2c3cccc4cccc(c34)S2(=O)=O)cc1", "Potency": "inconclusive: 29.1 µM [falling, single point]"}
{"molecule": "Cc1ccc(CCC(=O)Nc2ccccc2C(=O)O)o1", "Potency": "inconclusive: 29.1 µM [falling, single point]"}
{"molecule": "CCN(CC(=O)Nc1ccc(NC(C)=O)cc1)C(=O)C(c1ccccc1)c1ccccc1", "lipid storage change, negative = inhibition": "inconclusive: -0.352%"}
{"molecule": "C=CCNC(=O)/C(=C\\C=C\\c1ccccc1)NC(=O)c1ccccc1Cl", "lipid storage change, negative = inhibition": "inconclusive: 18%"}
{"molecule": "C=CCNC(=O)Nc1ccc(Br)cc1Cl", "lipid storage change, negative = inhibition": "inconclusive: -23.4% [at 9.22 µM]"}
{"molecule": "C=C1CCN(Cc2ccccc2)S(=O)(=O)c2ccccc21", "lipid storage change, negative = inhibition": "inconclusive: 12%"}
{"molecule": "CO/N=C(\\Cn1ncc(N2CCCC2)c(Cl)c1=O)c1ccc(Cl)cc1", "lipid storage change, negative = inhibition": "inconclusive: 97%"}
{"molecule": "O=Cc1ccc(Oc2ccc(F)cc2)nc1", "lipid storage change, negative = inhibition": "inconclusive: -37.5%"}
{"molecule": "COC(=O)c1ccc(CNC(=O)COC(=O)c2cc(Cl)nc(Cl)c2)cc1", "lipid storage change, negative = inhibition": "inconclusive: -9.27%"}
{"molecule": "CC1(C)CC(=O)C2=C(C1)c1c(ccc3ncccc13)NC2c1cccs1", "note": "(stereo not given)", "Potency": "inconclusive: 6.51 µM [activator, partial curve]"}
{"molecule": "Cc1ccc(NC(=O)c2ccc3snnc3c2)cc1C", "lipid storage change, negative = inhibition": "inconclusive: 33.1%"}
{"molecule": "CC(C)(C)Sc1ccc(N)nc1", "Potency": "inconclusive: 0.0259 µM [falling, full curve]"}
{"molecule": "NC(=O)C1CCN(CCC(=O)Nc2cccc(Cl)c2)CC1", "lipid storage change, negative = inhibition": "inconclusive: -6.3%"}
{"molecule": "CN(C)S(=O)(=O)c1ccc(C(=O)NCc2nnc(SCC(=O)NCc3ccco3)o2)cc1", "lipid storage change, negative = inhibition": "inconclusive: 2.38%"}
{"molecule": "COc1cccc(NC(=O)CN(c2cccc(OC)c2)S(C)(=O)=O)c1", "lipid storage change, negative = inhibition": "inconclusive: 4.45%"}
{"molecule": "O=C1CCCCCN1C(=O)c1cccc(C(=O)N2CCCCCC2=O)c1", "lipid storage change, negative = inhibition": "inconclusive: -1.8%"}
{"molecule": "CN(CC(=O)Nc1cc([N+](=O)[O-])ccc1Cl)Cc1ccc(Br)cc1", "lipid storage change, negative = inhibition": "inconclusive: 10.1%"}
{"molecule": "O=C(CCCCCN1C(=O)[C@@H]2Cc3ccccc3CN2C1=O)Nc1ccccc1F", "lipid storage change, negative = inhibition": "inconclusive: -64%"}
{"molecule": "COc1ccc(NC(=O)c2cc([N+](=O)[O-])ccc2NC(=O)CNC2CCCCC2C)c(OC)c1", "note": "(stereo not given)", "Potency": "inconclusive: 6.51 µM [falling, single point]"}
{"molecule": "Cc1ccc(SCCC(=O)OC(C)C(=O)Nc2ccccc2)cc1", "note": "(stereo not given)", "lipid storage change, negative = inhibition": "inconclusive: 7.79%"}
{"molecule": "COc1ccccc1N1CCN(Cc2nc(N)nc(Nc3ccc(C)c(Cl)c3)n2)CC1", "lipid storage change, negative = inhibition": "inconclusive: 5.02%"}
{"molecule": "O=C(CS(=O)(=O)Cc1ccccc1)N1CCN(C(=O)c2ccco2)CC1", "lipid storage change, negative = inhibition": "inconclusive: 2.62%"}
{"molecule": "O=C(COC(=O)c1cccs1)NCCCc1ccccc1", "lipid storage change, negative = inhibition": "inconclusive: -0.526%"}
{"molecule": "Cc1ccc(C(=O)C(C)OC(=O)c2nc(Cl)ccc2Cl)cc1", "note": "(stereo not given)", "lipid storage change, negative = inhibition": "inconclusive: 27.6%"}
{"molecule": "COc1ccc(/C=C2\\CCCC3C2=NC(=S)NC3c2ccc(OC)cc2)cc1", "note": "(stereo not given)", "lipid storage change, negative = inhibition": "inconclusive: 34.4%"}
{"molecule": "FC(F)Oc1ccccc1NC(=S)Nc1cccc(Cl)c1Cl", "lipid storage change, negative = inhibition": "inconclusive: 2.04%"}
{"molecule": "Cc1ccc(C)c(N2CCN(C(=O)c3cc(S(=O)(=O)N4CCOCC4)cn3C)CC2)c1", "Potency": "inconclusive: 4.61 µM [falling, full curve]"}
{"molecule": "CCCCCCC(C)OC(=O)c1ccccc1C(=O)O", "note": "(stereo not given)", "lipid storage change, negative = inhibition": "inconclusive: -19%"}
